Laboratory results taken from the supplement of paper PMC12889115.
This is one part of the list. These are raw signals, not scaled to a control.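 Primary screen: polymyxin B was added at a level permeabilizing Salmonella outer membranes while sparing inner membranes. DMSO wells, both with and without polymyxin B, established maximum growth. Plate-to-plate variation meant each plate was ranked on its own, and the lowest-OD600 compounds were selected as hits.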

System: Salmonella enterica serovar Typhimurium SL1344
Test: bacterial growth OD600 after 18 h with compound and polymyxin B; higher = more bacterial growth (less inhibition)
Details: 50 µM, Mueller-Hinton broth

SMILES | bacterial growth OD600 (polymyxin B 1 µg/mL) | bacterial growth OD600 (polymyxin B 0.75 µg/mL)
O=C(c1ccc2c(c1)OCO2)C1CCCN(Cc2ccccc2OC(F)F)C1 (stereo unspecified) | 0.876 | –
O=C(CC(c1cccc(O)c1)c1cccc(Cl)c1)NCc1cccnc1 (stereo unspecified) | 0.941 | –
C=CCS(=O)(=O)N1CCC(C2CCN(c3ncccn3)CC2)C1 (stereo unspecified) | – | 0.835
COc1cc(NC(=O)CCC2CCCN(C(=O)CCc3cccnc3)C2)cc(OC)c1 (stereo unspecified) | 0.961 | –
Cc1cccc(C)c1Oc1ncccc1CNC(=O)CCc1cccnc1 | 1.11 | –
O=C(c1ccc2c(c1)OCO2)C1CCCN(C(=O)C2CCOCC2)C1 (stereo unspecified) | 0.87 | –
CCN(CC)CC(O)COc1ccc(CN(C)Cc2n[nH]c3c2CCCC3)cc1OC (stereo unspecified) | – | 0.738
Cc1cccc(Cc2nnc(CCC(=O)N3CCC(C(O)c4cccs4)CC3)o2)c1 (stereo unspecified) | 0.896 | –
Cc1nc(CN2C[C@H]3OC(=O)N(C4CCCC4)[C@H]3C2)c[nH]1 | – | 0.804
COCCN(C)C(=O)c1csc2nc(-c3cccc(Cl)c3)cn12 | – | 0.629
Cc1nc(N2CCC(C(=O)N3CCC(c4ccncc4)CC3)CC2)nc2ccc(C(C)C)cc12 | – | 0.836
CCOc1ccccc1CN1CCNC(=O)C1CC(=O)NCc1cc(C)n(C)n1 (stereo unspecified) | 0.824 | –
c1ccc(-c2ncc3c(n2)CCCC3NCc2cccnc2)cc1 (stereo unspecified) | – | 0.918
CN(CCc1ccccn1)[C@@H]1CCN(Cc2c(F)cccc2Cl)C[C@H]1O | 0.844 | –
CC(C)Cc1nc2cc(NS(=O)(=O)N(C)C)cc(C(=O)N(C)CC3CCCCO3)c2n1C (stereo unspecified) | – | 0.765
C=CCNC(=O)N1CCC(C2CCN(Cc3cccc(F)c3F)CC2)C1 (stereo unspecified) | – | 0.868

An excerpt of these results, with tabs:
SMILES	bacterial growth OD600 (polymyxin B 1 µg/mL)	bacterial growth OD600 (polymyxin B 0.75 µg/mL)
c1ccc(-c2ncc3c(n2)CCCC3NCc2cccnc2)cc1 (stereo unspecified)	–	0.918
CN(CCc1ccccn1)[C@@H]1CCN(Cc2c(F)cccc2Cl)C[C@H]1O	0.844	–

(next part)

SMILES | bacterial growth OD600 (polymyxin B 1 µg/mL) | bacterial growth OD600 (polymyxin B 0.75 µg/mL)
CC(C)CCCC1CN(C(=O)C2CCOCC2)CCO1 (stereo unspecified) | 0.843 | –
Cc1ccc(C(=O)N2CCC(C(Cc3ccc(F)cc3F)N(C)C(=O)c3cccnc3)CC2)cc1C (stereo unspecified) | – | 0.831
CN(c1ncccc1CNCc1ccc2c(c1)CCO2)C1CCCCC1 | 0.939 | –
O=C(NCCc1cccc(C(F)(F)F)c1)c1cc(CN2CCCC(O)C2)on1 (stereo unspecified) | – | 0.759
Cc1ccccc1C1(CC(=O)N2CCN(C3CCCCC3)CC2)CC(=O)N(Cc2cccnc2)C1=O (stereo unspecified) | – | 0.772
Cc1c(C(=O)NCCCc2ccncc2)sc2ncnc(N3CCCCCCC3)c12 | – | 0.001
Cc1oc(-c2ccc(NC(=O)Cc3ccccc3)cc2)nc1CNC(=O)c1cccc(-c2ccco2)c1 | – | 0.876
COc1ccc(OC)c(-c2nc(CN3CCCCC3c3cccc(F)c3)c(C)o2)c1 (stereo unspecified) | 0.008 | –
CN(C)C(=O)CCC(=O)N1CCC(n2nccc2NC(=O)Nc2ccccc2Cl)CC1 | – | 0.811
CC(C)c1cc(C(=O)N2CCCC(C(=O)c3ccc4ccccc4c3)C2)no1 (stereo unspecified) | 0.155 | –
Cc1ccccc1CCC1CCCN(C(=O)CN2CCCCC2=O)C1 (stereo unspecified) | – | 0.937
COc1ccc(CC2=NOC(CNC(=O)c3ccccc3C(F)(F)F)C2)cc1 (stereo unspecified) | – | 0.8
CCOc1ccc(CN(C)CC2CCCN(CCc3ccc(OC)cc3)C2)cc1 (stereo unspecified) | 0.858 | –
O=C(c1cccc(-n2cnnc2)c1)N1CCOC(CCc2ccccc2)C1 (stereo unspecified) | – | 0.815
O=C(CCC(F)(F)F)NC1CC(=O)N(CCc2ccccc2)C1 (stereo unspecified) | 1.03 | –
